Measured values: patent publication US10487121B2, “D-peptide inhibitors of HIV entry and methods of use” (priority 2016, dated 2019)
At least one peptide structure holds a part that was inferred or is arguable (an end, a ring closure or a residue). Numbered stars: 1 amine (or outer) side, 2 acyl side, 3 side chain; on linkers, the order of the positions; unused ones are H or OH. Bridge positions count the residues as written; N and C are the ends. Square brackets hold non-standard residues; d marks the D form. I, II: the chains in the order shown. X1 = CC(C)CCC[C@@H](C)[C@H]1CC[C@H]2[C@@H]3CC=C4C[C@@H](OC(=O)NCCOCCOCCOCCOCCC(=O)NCCOCCOCCOCCOCCOCCOCCOCCOCCOCCOCCOCCOCCOCCOCCOCCOCCOCCOCCOCCOCCOCCOCCOCCOCCOCCOCCOCCOCCC(=O)NC(CCC(=O)[*:1])(CCC(=O)[*:2])CCC(=O)[*:3])CC[C@]4(C)[C@H]3CC[C@]12C; PEG4 = NCCOCCOCCOCCOCCC(=O)O

Legend:
[1] = Non-human primate pharmacokinetics; format: in vivo; conditions: male cynomolgus monkeys, plasma, median
Procedure: Non-Human Primate Pharmacokinetics
In-life was performed by Calvert Laboratories (Scott Township, Pa.). […] Upon IV dosing, 1 ml blood samples were collected at 0.083, 0.167, 0.25, 0.5, 1, 2, 4, 8, 16 and 24 h post-dose into chilled tubes containing K2EDTA, mixed by inversion, and centrifuged (3000 rpm, 4° C., 15 min) to isolate plasma. Plasma was stored at −80° C. until bioanalysis.
Following a 13-day washout period, study animals were administered a single subcutaneous dose of CPT31 (10 mg/ml in 50 mM HEPES, pH 7.4) into the loose skin of the back between the shoulder blades at a dose of 3 mg/kg. Plasma samples were collected at pre-dose, 0.25, 0.5, 1, 2, 4, 8, 16, 24 and 48 hours post-dose. Collected blood samples were treated as described above. The pre-dose sample confirmed drug levels were below the lower limit of quantification (5.00 nM).
CPT31 in Monkey Plasma-Calvert Study
The internal standard, CPT31-IS was synthesized with an additional glycine on each PIE12-2 monomer (three in total), increasing the molecular mass by 171.1 Da. […]
LC-MS analysis was conducted using an Agilent Infinity 1290 HPLC system paired to an Agilent 6450A Q-TOF mass spectrometer equipped with a Dual Jet Spray ESI source. […] Samples were analyzed against a standard curve of CPT31 from 5.00-2,000 nM.

[2] = test system: JRFL (R5) luciferase reporter pseudovirions on HOS-CD4-CCR5; assay: Pseudovirion entry assay, JRFL; format: cell-based, HIV-1
Procedure: Pseudovirion assays were performed as previously described (Welch et al., 2010, J. Virol. 84:11235-44; Welch et al., 2007, Proc. Natl. Acad. Sci. 104:16827-16833, each of which is incorporated herein by reference in its entirety). Briefly, a six-point dilution series of each inhibitor was generated in quadruplicate on HOS-CD4-CXCR4 (for HXB2) or HOS-CD4-CCR5 (for JRFL) monolayers in 96 well plates, after which HXB2 (X4) or JRFL (R5) luciferase reporter pseudovirions were added. After 2 days, cells were lysed using GloLysis buffer (Promega) and BrightGlo luciferase substrate (Promega) was added. Luminescence was read on a PolarStar Optima (BMG) plate reader and normalized to uninhibited controls. Inhibition curves were plotted and fit to a standard IC50 equation for normalized data [(1−c/(IC50+c)], weighting each point by its standard error using KaleidaGraph (Synergy Software). Reported IC50 values are the average of at least two independent quadruplicate assays.

[3] = test system: International Reference Panel of HIV-1 Isolates; assay: Breadth assay, whole panel; format: cell-based

In the case of “I: Ac-[dH][dP][dC][dD][dY][dP][dE][dW][dQ][dW][dL][dC][dE][dL]G[PEG4][dK]-NH2 / II: Ac-[dH][dP][dC][dD][dY][dP][dE][dW][dQ][dW][dL][dC][dE][dL]G[PEG4][dK]-NH2 / III: Ac-[dH][dP][dC][dD][dY][dP][dE][dW][dQ][dW][dL][dC][dE][dL]G[PEG4][dK]-NH2 (disulfide I:3-I:12, II:3-II:12, III:3-III:12; linker I:17-II:17-III:17 via X1) [CPT31]”, the T1/2 ([1]; IV, 1.0 mg/kg) is reported as 7.4 h, the T1/2 ([1]; SC, 3.0 mg/kg) is reported as 18.8 h and the “antiviral potency, in words” value [2] is reported as “low-mid pM”. The IC50 ([2]; JRFL, read-out: potency against the JRFL strain) was 0.015 nM, the “improvement in antiviral potency vs CPT24” value ([2]; from 19 pM to 15 pM) was roughly 20% and the “number of the 59 tested strains inhibited >90% at 1 nM” value ([3]; CPT31 1 nM) was 49. For the same substance, the “number of strains not inhibited >90% at 1 nM that were inhibited greater than 90% at 10 nM” value ([3]; CPT31 10 nM) was 4.
